Test results published in article PMC6224402.
No constants are given. Whether binding was seen depends on the method and setting. In cells and extracts the contact can be indirect. A yes stands for co-enrichment or nearness to the bait. Other partners may have been found.

Chains of the proteins cited; added tags and fusions are not shown.
UniProt Q9P1W9: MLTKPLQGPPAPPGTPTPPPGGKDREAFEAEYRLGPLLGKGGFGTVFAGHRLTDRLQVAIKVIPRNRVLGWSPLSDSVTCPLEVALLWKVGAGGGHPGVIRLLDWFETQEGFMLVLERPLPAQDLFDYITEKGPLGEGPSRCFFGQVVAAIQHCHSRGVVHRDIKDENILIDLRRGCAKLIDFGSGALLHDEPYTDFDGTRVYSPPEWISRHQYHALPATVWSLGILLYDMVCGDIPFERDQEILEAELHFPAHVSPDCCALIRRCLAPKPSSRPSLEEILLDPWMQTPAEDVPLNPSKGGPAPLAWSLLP

Target: endogenous PIM2 (human (endogenous in MCF-7)) (UniProt Q9P1W9)
Test: affinity purification with mass spectrometry; mass spectrometry of the immunoprecipitated PIM2 complex in MCF-7 cells

binding: binds
B1: endogenous HK2 (enzyme, UniProt P52789 1-917)
chain: MIASHLLAYFFTELNHDQVQKVDQYLYHMRLSDETLLEISKRFRKEMEKGLGATTHPTAAVKMLPTFVRSTPDGTEHGEFLALDLGGTNFRVLWVKVTDNGLQKVEMENQIYAIPEDIMRGSGTQLFDHIAECLANFMDKLQIKDKKLPLGFTFSFPCHQTKLDESFLVSWTKGFKSSGVEGRDVVALIRKAIQRRGDFDIDIVAVVNDTVGTMMTCGYDDHNCEIGLIVGTGSNACYMEEMRHIDMVEGDEGRMCINMEWGAFGDDGSLNDIRTEFDQEIDMGSLNPGKQLFEKMISGMYMGELVRLILVKMAKEELLFGGKLSPELLNTGRFETKDISDIEGEKDGIRKAREVLMRLGLDPTQEDCVATHRICQIVSTRSASLCAATLAAVLQRIKENKGEERLRSTIGVDGSVYKKHPHFAKRLHKTVRRLVPGCDVRFLRSEDGSGKGAAMVTAVAYRLADQHRARQKTLEHLQLSHDQLLEVKRRMKVEMERGLSKETHASAPVKMLPTYVCATPDGTEKGDFLALDLGGTNFRVLLVRVRNGKWGGVEMHNKIYAIPQEVMHGTGDELFDHIVQCIADFLEYMGMKGVSLPLGFTFSFPCQQNSLDESILLKWTKGFKASGCEGEDVVTLLKEAIHRREEFDLDVVAVVNDTVGTMMTCGFEDPHCEVGLIVGTGSNACYMEEMRNVELVEGEEGRMCVNMEWGAFGDNGCLDDFRTEFDVAVDELSLNPGKQRFEKMISGMYLGEIVRNILIDFTKRGLLFRGRISERLKTRGIFETKFLSQIESDCLALLQVRAILQHLGLESTCDDSIIVKEVCTVVARRAAQLCGAGMAAVVDRIRENRGLDALKVTVGVDGTLYKLHPHFAKVMHETVKDLAPKCDVSFLQSEDGSGKGAALITAVACRIREAGQR
